Reference: paper PMC3654909
These are yes or no findings as the source states them, for the method shown.

Chains of the proteins cited; added tags and fusions are not shown. Lines headed by an entry give the natural chain unless they say otherwise; changes in a name come on top. Residues count along the entry.
UniProt Q9UGM3, residues 20-2413: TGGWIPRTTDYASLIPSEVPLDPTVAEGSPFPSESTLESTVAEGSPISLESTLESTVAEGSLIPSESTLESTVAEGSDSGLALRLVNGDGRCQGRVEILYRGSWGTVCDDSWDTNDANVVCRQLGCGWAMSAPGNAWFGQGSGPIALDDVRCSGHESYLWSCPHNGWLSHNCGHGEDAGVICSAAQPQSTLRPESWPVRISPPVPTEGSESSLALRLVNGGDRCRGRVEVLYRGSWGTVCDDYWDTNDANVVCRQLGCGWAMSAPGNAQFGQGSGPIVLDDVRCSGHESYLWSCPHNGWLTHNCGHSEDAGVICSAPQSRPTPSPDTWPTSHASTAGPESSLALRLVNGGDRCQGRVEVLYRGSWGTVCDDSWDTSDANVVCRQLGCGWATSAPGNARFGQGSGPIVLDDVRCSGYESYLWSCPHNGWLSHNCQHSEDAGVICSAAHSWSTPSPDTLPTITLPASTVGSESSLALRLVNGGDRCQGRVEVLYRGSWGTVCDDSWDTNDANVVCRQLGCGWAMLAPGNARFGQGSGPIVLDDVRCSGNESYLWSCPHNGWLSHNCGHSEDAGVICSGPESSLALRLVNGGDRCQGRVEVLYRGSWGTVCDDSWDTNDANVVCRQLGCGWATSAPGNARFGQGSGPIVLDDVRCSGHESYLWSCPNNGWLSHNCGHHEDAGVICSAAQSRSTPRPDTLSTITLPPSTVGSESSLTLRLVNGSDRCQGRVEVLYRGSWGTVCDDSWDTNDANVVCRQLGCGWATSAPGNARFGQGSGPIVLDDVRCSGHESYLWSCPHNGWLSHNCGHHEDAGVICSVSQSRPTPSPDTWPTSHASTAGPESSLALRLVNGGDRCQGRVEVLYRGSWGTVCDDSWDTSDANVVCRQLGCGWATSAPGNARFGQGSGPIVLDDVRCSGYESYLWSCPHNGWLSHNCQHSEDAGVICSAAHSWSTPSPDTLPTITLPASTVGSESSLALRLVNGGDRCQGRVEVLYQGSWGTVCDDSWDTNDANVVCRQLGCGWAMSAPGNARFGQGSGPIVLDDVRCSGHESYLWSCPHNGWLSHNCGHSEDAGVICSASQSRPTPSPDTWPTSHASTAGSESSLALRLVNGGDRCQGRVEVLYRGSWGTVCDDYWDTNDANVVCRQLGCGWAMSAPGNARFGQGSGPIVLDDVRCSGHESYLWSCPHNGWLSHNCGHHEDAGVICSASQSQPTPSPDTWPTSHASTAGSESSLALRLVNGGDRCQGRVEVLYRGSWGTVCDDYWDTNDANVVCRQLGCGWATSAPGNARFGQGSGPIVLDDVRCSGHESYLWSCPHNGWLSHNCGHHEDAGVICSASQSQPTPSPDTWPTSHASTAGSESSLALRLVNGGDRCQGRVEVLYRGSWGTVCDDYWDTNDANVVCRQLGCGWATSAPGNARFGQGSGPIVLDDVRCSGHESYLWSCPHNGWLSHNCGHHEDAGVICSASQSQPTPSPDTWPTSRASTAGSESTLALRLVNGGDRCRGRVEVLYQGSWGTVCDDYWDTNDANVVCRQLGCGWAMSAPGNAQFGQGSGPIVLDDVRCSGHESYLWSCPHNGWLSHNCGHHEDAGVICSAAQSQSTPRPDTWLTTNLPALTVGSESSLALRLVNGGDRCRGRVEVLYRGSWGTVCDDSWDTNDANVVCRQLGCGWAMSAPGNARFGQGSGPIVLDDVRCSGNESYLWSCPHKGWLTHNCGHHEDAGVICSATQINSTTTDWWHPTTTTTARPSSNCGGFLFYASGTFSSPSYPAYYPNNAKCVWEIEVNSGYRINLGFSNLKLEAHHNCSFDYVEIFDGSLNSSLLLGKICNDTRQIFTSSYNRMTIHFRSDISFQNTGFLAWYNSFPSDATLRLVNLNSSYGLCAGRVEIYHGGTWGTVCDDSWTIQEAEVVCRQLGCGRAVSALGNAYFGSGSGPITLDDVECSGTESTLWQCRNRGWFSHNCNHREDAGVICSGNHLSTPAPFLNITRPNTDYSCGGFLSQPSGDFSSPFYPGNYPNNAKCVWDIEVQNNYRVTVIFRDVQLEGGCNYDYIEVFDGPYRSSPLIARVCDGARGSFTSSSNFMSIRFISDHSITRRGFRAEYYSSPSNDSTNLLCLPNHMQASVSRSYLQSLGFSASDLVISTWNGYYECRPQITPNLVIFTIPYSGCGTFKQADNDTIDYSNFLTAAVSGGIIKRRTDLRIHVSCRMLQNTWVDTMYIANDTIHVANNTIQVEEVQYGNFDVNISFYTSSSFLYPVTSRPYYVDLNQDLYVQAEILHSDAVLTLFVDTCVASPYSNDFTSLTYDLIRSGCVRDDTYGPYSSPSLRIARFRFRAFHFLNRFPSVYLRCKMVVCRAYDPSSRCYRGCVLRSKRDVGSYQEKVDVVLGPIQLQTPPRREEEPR

What was measured:
[1] = molecular target: T1, recombinant human non-glycosylated TFF2 (trefoil factor 2) (human) (UniProt Q03403); experiment: condition: 600 ng/mL DMBT1^gp340 (highest tested); TFF coated at up to 2 µg/mL; ELISA; TFF proteins coated on Maxisorp plates (two-fold dilutions from 2 µg/mL, carbonate buffer pH 9.6, overnight 4 °C); DMBT1^gp340 in two-fold dilutions from 600 ng/mL for 2 h in TBS, 0.05% Tween 20, 5 mM CaCl2, pH 7.4, room temperature; detected with rabbit polyclonal K421 and alkaline phosphatase-coupled anti-rabbit IgG; both purified
T1 sequence: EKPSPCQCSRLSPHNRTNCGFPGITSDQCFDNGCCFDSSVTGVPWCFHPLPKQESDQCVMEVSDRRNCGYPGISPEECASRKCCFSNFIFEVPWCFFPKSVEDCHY

[2] = molecular target: T2, recombinant human glycosylated TFF2 (trefoil factor 2) (human) (UniProt Q03403); experiment: as above
T2 sequence (chain, asparagine N-linked glycosylation (position not printed)): T1 sequence

With “Native DMBT1^gp340 (deleted in malignant brain tumors 1, glycoprotein 340) (from UniProt Q9UGM3 20-2413)” the binding [1] was “no binding” and the binding [2] was “no binding”.
